Test results: patent US20190183997A1
No constants are given. Whether binding was seen depends on the method and setting. Some results given as binding are weak or reduced against the parent protein; the word gives no strength.

Sequences of proteins named here, by UniProt entry; tags and fusion partners are left off. Residues count along the entry.
UniProt Q8I0U8, residues 1607-1699: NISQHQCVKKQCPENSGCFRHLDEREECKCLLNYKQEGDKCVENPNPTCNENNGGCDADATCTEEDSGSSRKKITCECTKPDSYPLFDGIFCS

Target: MSP1-19 protein from P. falciparum (3D7) (Plasmodium falciparum (3D7)) (UniProt Q8I0U8)
Test: specificity label of the clone; AMA/MSP1 tetramer sorting and ELISA of recombinant mAbs (Example 2)

Binder	binding
Human malaria antigen MSP1-specific IgM clone A8P2-B7 (antibody, V domains shown) VH: QVQLQQWGAGLLKPSETLSLTCAVYGGSFSGYYWTWIRQPPGKGLEWIGEINNSGKTNYNPSLKSRVSISIDTSKNQFSLKVTSVTAADTAVYYCARGPQQHLEPPFDYWGHGTLVTVSS VL: QSVLTQPPSASGTPGQRVTISCSGSNSNIATNYVCWYQQYPGTAPKPLIYRTDQRPSGVPDRFSGSKSGTSASLAISGLRSEDEADYYCATWDDSLSAWVFGGGTKLTVL	binds
Human malaria antigen MSP1-specific IgG clone A8P3-C10 (antibody, V domains shown) VH: EVQLLESGGALVQPGGSLRLSCVTSGFTFSSYAMTWVRQAPGKGLEWVSGISSGGFITYYADSVKGRFTISRDNSKNTVYLQMNSLRAEDTALYYCAKGMGSNIYVGFDYWGQGTLVTVSS VL: EIVLTQSPGTLSLSPGERATLSCRASQIVSSNYLAWYQQKPGQAPRLLIFGASSRATGIPDRFSGSGSDTDFTLTIRRLESEDFAVYYCHQYGSSPGTFGQGTKVEIK	binds
Human malaria antigen MSP1-specific IgM clone A8P3-E4 (antibody, V domains shown) VH: QVQLQESGPGLVKPSETLSLTCSVSGGSISNSYVSWIRQPPGKGLEWIGYIYYSGGTNYNPSLKSRVTISVDTSKNQFSLKLSSVTAADTAVYYCARGKIYFDYWGQGTLVTVSS VL: DIQMTQSPSTLSASVGDRVTITCRASQSISSWLAWYQLKPGKAPKLLIYKASSLESGVPSRFSGSGSGTEFTLTISSLQPGDFATYYCQQYNSYALAFGQGTKVEIK	binds
